Reference: paper PMC8298264, “Function of cofactor Akirin2 in the regulation of gene expression in model human neutrophil-like HL60 cells” (Bioscience Reports, 2021)

B1: sp¦Q9UBT2¦SAE2_HUMAN (protein, UniProt Q9UBT2 1-640, looked up)
SUMO-activating enzyme …: MALSRGLPRELAEAVAGGRVLVVGAGGIGCELLKNLVLTGFSHIDLIDLDTIDVSNLNRQFLFQKKHVGRSKAQVAKESVLQFYPKANIVAYHDSIMNPDYNVEFFRQFILVMNALDNRAARNHVNRMCLAADVPLIESGTAGYLGQVTTIKKGVTECYECHPKPTQRTFPGCTIRNTPSEPIHCIVWAKYLFNQLFGEEDADQEVSPDRADPEAAWEPTEAEARARASNEDGDIKRISTKEWAKSTGYDPVKLFTKLFKDDIRYLLTMDKLWRKRKPPVPLDWAEVQSQGEETNASDQQNEPQLGLKDQQVLDVKSYARLFSKSIETLRVHLAEKGDGAELIWDKDDPSAMDFVTSAANLRMHIFSMNMKSRFDIKSMAGNIIPAIATTNAVIAGLIVLEGLKILSGKIDQCRTIFLNKQPNPRKKLLVPCALDPPNPNCYVCASKPEVTVRLNVHKVTVLTLQDKIVKEKFAMVAPDVQIEDGKGTILISSEEGETEANNHKKLSEFGIRNGSRLQADDFLQDYTLLINILHSEDLGKDVEFEVVGDAPEKVGPKQAEDAAKSITNGSDDGAQPSTSTAQEQDDVLIVDSDEEDSSNNADVSEEERSRKRKLDEKENLSAKRSRIEQKEELDDVIALD
B2: sp¦P30084¦ECHM_HUMAN (protein, UniProt P30084 28-290, looked up)
Enoyl-CoA hydratase, …: ASGANFEYIIAEKRGKNNTVGLIQLNRPKALNALCDGLIDELNQALKTFEEDPAVGAIVLTGGDKAFAAGADIKEMQNLSFQDCYSSKFLKHWDHLTQVKKPVIAAVNGYAFGGGCELAMMCDIIYAGEKAQFAQPEILIGTIPGAGGTQRLTRAVGKSLAMEMVLTGDRISAQDAKQAGLVSKICPVETLVEEAIQCAEKIASNSKIVVAMAKESVNAAFEMTLTEGSKLEKKLFYSTFATDDRKEGMTAFVEKRKANFKDQ
B3: sp¦P38117¦ETFB_HUMAN (protein, UniProt P38117 2-255, looked up)
Electron transfer …: AELRVLVAVKRVIDYAVKIRVKPDRTGVVTDGVKHSMNPFCEIAVEEAVRLKEKKLVKEVIAVSCGPAQCQETIRTALAMGADRGIHVEVPPAEAERLGPLQVARVLAKLAEKEKVDLVLLGKQAIDDDCNQTGQMTAGFLDWPQGTFASQVTLEGDKLKVEREIDGGLETLRLKLPAVVTADLRLNEPRYATLPNIMKAKKKKIEVIKPGDLGVDLTSKLSVISVEDPPQRTAGVKVETTEDLVAKLKEIGRI
B4: sp¦P22695¦QCR2_HUMAN (protein, UniProt P22695 15-453, looked up)
Cytochrome b-c1 complex …: SLKVAPKVKATAAPAGAPPQPQDLEFTKLPNGLVIASLENYSPVSRIGLFIKAGSRYEDFSNLGTTHLLRLTSSLTTKGASSFKITRGIEAVGGKLSVTATRENMAYTVECLRGDVDILMEFLLNVTTAPEFRRWEVADLQPQLKIDKAVAFQNPQTHVIENLHAAAYRNALANPLYCPDYRIGKVTSEELHYFVQNHFTSARMALIGLGVSHPVLKQVAEQFLNMRGGLGLSGAKANYRGGEIREQNGDSLVHAAFVAESAVAGSAEANAFSVLQHVLGAGPHVKRGSNTTSHLHQAVAKATQQPFDVSAFNASYSDSGLFGIYTISQATAAGDVIKAAYNQVKTIAQGNLSNTDVQAAKNKLKAGYLMSVESSECFLEEVGSQALVAGSYMPPSTVLQQIDSVANADIINAAKKFVSGQKSMAASGNLGHTPFVDEL
B5: sp¦Q9BV20¦MTNA_HUMAN (protein, UniProt Q9BV20 1-369, looked up)
Methylthioribose-1-phosphate …: MTLEAIRYSRGSLQILDQLLLPKQSRYEAVGSVHQAWEAIRAMKVRGAPAIALVGCLSLAVELQAGAGGPGLAALVAFVRDKLSFLVTARPTAVNMARAARDLADVAAREAEREGATEEAVRERVICCTEDMLEKDLRDNRSIGDLGARHLLERVAPSGGKVTVLTHCNTGALATAGYGTALGVIRSLHSLGRLEHAFCTETRPYNQGARLTAFELVYEQIPATLITDSMVAAAMAHRGVSAVVVGADRVVANGDTANKVGTYQLAIVAKHHGIPFYVAAPSSSCDLRLETGKEIIIEERPGQELTDVNGVRIAAPGIGVWNPAFDVTPHDLITGGIITELGVFAPEELRTALTTTISSRDGTLDGPQM
B6: sp¦O43143¦DHX15_HUMAN (protein, UniProt O43143 1-795, looked up)
ATP-dependent RNA helicase …: MSKRHRLDLGEDYPSGKKRAGTDGKDRDRDRDREDRSKDRDRERDRGDREREREKEKEKELRASTNAMLISAGLPPLKASHSAHSTHSAHSTHSTHSAHSTHAGHAGHTSLPQCINPFTNLPHTPRYYDILKKRLQLPVWEYKDRFTDILVRHQSFVLVGETGSGKTTQIPQWCVEYMRSLPGPKRGVACTQPRRVAAMSVAQRVADEMDVMLGQEVGYSIRFEDCSSAKTILKYMTDGMLLREAMNDPLLERYGVIILDEAHERTLATDILMGVLKEVVRQRSDLKVIVMSATLDAGKFQIYFDNCPLLTIPGRTHPVEIFYTPEPERDYLEAAIRTVIQIHMCEEEEGDLLLFLTGQEEIDEACKRIKREVDDLGPEVGDIKIIPLYSTLPPQQQQRIFEPPPPKKQNGAIGRKVVVSTNIAETSLTIDGVVFVIDPGFAKQKVYNPRIRVESLLVTAISKASAQQRAGRAGRTRPGKCFRLYTEKAYKTEMQDNTYPEILRSNLGSVVLQLKKLGIDDLVHFDFMDPPAPETLMRALELLNYLAALNDDGDLTELGSMMAEFPLDPQLAKMVIASCDYNCSNEVLSITAMLSVPQCFVRPTEAKKAADEAKMRFAHIDGDHLTLLNVYHAFKQNHESVQWCYDNFINYRSLMSADNVRQQLSRIMDRFNLPRRSTDFTSRDYYINIRKALVTGYFMQVAHLERTGHYLTVKDNQVVQLHPSTVLDHKPEWVLYNEFVLTTKNYIRTCTDIKPEWLVKIAPQYYDMSNFPQCEAKRQLDRIIAKLQSKEYSQY
B7: sp¦Q8NCW5¦NNRE_HUMAN (protein, UniProt Q8NCW5 48-288, looked up)
NAD(P)H-hydrate epimerase: DSEVMASTVVKYLSQEEAQAVDQELFNEYQFSVDQLMELAGLSCATAIAKAYPPTSMSRSPPTVLVICGPGNNGGDGLVCARHLKLFGYEPTIYYPKRPNKPLFTALVTQCQKMDIPFLGEMPAEPMTIDELYELVVDAIFGFSFKGDVREPFHSILSVLKGLTVPIASIDIPSGWDVEKGNAGGIQPDLLISLTAPKKSATQFTGRYHYLGGRFVPPALEKKYQLNLPPYPDTECVYRLQ
B8: sp¦Q9Y5M8¦SRPRB_HUMAN (protein, UniProt Q9Y5M8 1-271, looked up)
Signal recognition particle …: MASADSRRVADGGGAGGTFQPYLDTLRQELQQTDPTLLSVVVAVLAVLLTLVFWKLIRSRRSSQRAVLLVGLCDSGKTLLFVRLLTGLYRDTQTSITDSCAVYRVNNNRGNSLTLIDLPGHESLRLQFLERFKSSARAIVFVVDSAAFQREVKDVAEFLYQVLIDSMGLKNTPSFLIACNKQDIAMAKSAKLIQQQLEKELNTLRVTRSAAPSTLDSSSTAPAQLGKKGKEFEFSQLPLKVEFLECSAKGGRGDVGSADIQDLEKWLAKIA
B9: sp¦Q9Y6C9¦MTCH2_HUMAN (protein, UniProt Q9Y6C9 2-303, looked up)
Mitochondrial carrier homolog …: ADAASQVLLGSGLTILSQPLMYVKVLIQVGYEPLPPTIGRNIFGRQVCQLPGLFSYAQHIASIDGRRGLFTGLTPRLCSGVLGTVVHGKVLQHYQESDKGEELGPGNVQKEVSSSFDHVIKETTREMIARSAATLITHPFHVITLRSMVQFIGRESKYCGLCDSIITIYREEGILGFFAGLVPRLLGDILSLWLCNSLAYLVNTYALDSGVSTMNEMKSYSQAVTGFFASMLTYPFVLVSNLMAVNNCGLAGGCPPYSPIYTSWIDCWCMLQKEGNMSRGNSLFFRKVPFGKTYCCDLKMLI
B10: sp¦Q9NZ45¦CISD1_HUMAN (protein, UniProt Q9NZ45 2-108, looked up)
CDGSH iron-sulfur …: SLTSSSSVRVEWIAAVTIAAGTAAIGYLAYKRFYVKDHRNKAMINLHIQKDNPKIVHAFDMEDLGDKAVYCRCWRSKKFPFCDGAHTKHNEETGDNVGPLIIKKKET

These molecules were tested on human HL60 cells (assay: SWATH-MS proteomics, differential protein representation, akirin2 KO vs WT HL60 cells). Conditions: akirin2 KO vs WT HL60 cells, SWATH-MS; sheet "Under-represented in KO".
Assay type: cell-based
Description: Total proteins were extracted from WT and akirin2 KO HL60 cells using the AllPrep DNA/RNA/Protein Mini Kit (Qiagen) and protein concentration was determined using the BCA Protein Assay with BSA (Sigma–Aldrich) as standard. Protein extracts (150 µg per sample, n=3 biological replicates) from each WT and KO cells were trypsin digested using the FASP Protein Digestion Kit (Expedeon Ltd., Abcam, Cambridge, U.K.) and sequencing grade trypsin (Promega, Madison, WI, U.S.A.) following manufacturer’s recommendations. The resulting peptides were finally desalted on to OMIX Pipette tips C18 (Agilent Technologies, Santa Clara, CA, U.S.A.), dried down and stored at −20 °C until mass spectrometry analysis. […] Three micrograms of each protein digest from the three biological replicates of WT and akirin2 KO HL60 cells were used for the generation of the reference spectral ion library as part of the SWATH-MS analysis.
Peptides were eluted in a 120-min gradient from 5 to 30% solvent B in solvent A followed by 15-min gradient from 30 to 60% solvent B in solvent A (solvent A: 0.1% formic acid in water, solvent B: 0.1% formic acid in acetonitrile) and directly injected into the mass spectrometer for analysis. For IDA experiments, the mass spectrometer was set to scanning full spectra (350–1400 m/z) using 250 ms accumulation time per spectrum, followed by up to 50 MS/MS scans (100–1500 m/z). Candidate ions with a charge state between +2 and +5 counts per second above a minimum threshold of 100 were isolated for fragmentation. One MS/MS spectrum was collected for 100 ms, before adding those precursor ions to the exclusion list for 15 s (mass spectrometer operated by Analyst TF 1.6, AB Sciex). Dynamic background subtraction was turned off. MS/MS analyses were recorded in high-sensitivity mode with rolling collision energy on and a collision energy spread of 5. For SWATH quantitative analysis, six independent samples (three replicates from WT and akirin2 KO HL60 cells, 5 µg each) were subjected to the cyclic DIA of mass spectra using the SWATH variable windows calculator (V 1.0, AB Sciex) and the SWATH acquisition method editor (AB Sciex), similar to established methods. […] For these experiments, a 50-ms survey scan (350–1400 m/z) was acquired at the beginning of each cycle, and SWATH–MS/MS spectra were collected from 100–1500 m/z for 70 ms at high-sensitivity mode, resulting in a cycle time of 3.6 s. Collision energy for each window was determined according to the calculation for a charge +2 ion-centered upon the window with a collision energy spread of 15. To create a spectral library of all the detectable peptides in the samples, the IDA MS raw files were combined and subjected to database search in unison using ProteinPilot software v. 5.0.1 (AB Sciex) with the Paragon algorithm. […] The detected protein threshold was set at 0.05. An independent false discovery rate (FDR) analysis, using the target–decoy approach provided by Protein Pilot (AB Sciex; https://sciex.com/products/software/proteinpilot-software), was used to assess the quality of identifications. Positive identifications were considered when identified proteins reached 1% of global FDR. […] Global normalization was performed according to the Total Area Sums (TAS) of all detected proteins in the samples. […] Heatmaps were prepared using the Heatmapper (http://www.heatmapper.ca/expression/) with average linkage and Euclidean distance measurement method.

Molecule	Fold Change	Log (Fold Change)
B1	0.8354	-0.07813
B2	0.8444	-0.07343
B3	0.8428	-0.07428
B4	0.8272	-0.08239
B5	0.8301	-0.08085
B6	0.845	-0.07313
B7	0.8398	-0.07581
B8	0.8331	-0.07932
B9	0.8427	-0.07434
B10	0.8402	-0.07562
